In the supplement of paper PMC12823440, “Inhibitors supercharge kinase turnover through native proteolytic circuits” (Nature, 2025):
This is one part of the list. Hit calls seldom repeat between salt and free forms of one compound.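 In K562 cells expressing nanoluciferase-fused kinases, luminescence was recorded at 4 h intervals between 2 and 18 h, normalized as percent of control with DMSO at 100% and a positive control at 0%. A significant (2 sigma) signal drop marks a time point as decreased. The authors' rule for a hit is not shown and takes in more than the number of time points.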

Sequences of proteins named here, by UniProt entry; tags and fusion partners are left off. A change or cut given only in a name is not applied to a line headed by its entry.
UniProt P21860, whole entry: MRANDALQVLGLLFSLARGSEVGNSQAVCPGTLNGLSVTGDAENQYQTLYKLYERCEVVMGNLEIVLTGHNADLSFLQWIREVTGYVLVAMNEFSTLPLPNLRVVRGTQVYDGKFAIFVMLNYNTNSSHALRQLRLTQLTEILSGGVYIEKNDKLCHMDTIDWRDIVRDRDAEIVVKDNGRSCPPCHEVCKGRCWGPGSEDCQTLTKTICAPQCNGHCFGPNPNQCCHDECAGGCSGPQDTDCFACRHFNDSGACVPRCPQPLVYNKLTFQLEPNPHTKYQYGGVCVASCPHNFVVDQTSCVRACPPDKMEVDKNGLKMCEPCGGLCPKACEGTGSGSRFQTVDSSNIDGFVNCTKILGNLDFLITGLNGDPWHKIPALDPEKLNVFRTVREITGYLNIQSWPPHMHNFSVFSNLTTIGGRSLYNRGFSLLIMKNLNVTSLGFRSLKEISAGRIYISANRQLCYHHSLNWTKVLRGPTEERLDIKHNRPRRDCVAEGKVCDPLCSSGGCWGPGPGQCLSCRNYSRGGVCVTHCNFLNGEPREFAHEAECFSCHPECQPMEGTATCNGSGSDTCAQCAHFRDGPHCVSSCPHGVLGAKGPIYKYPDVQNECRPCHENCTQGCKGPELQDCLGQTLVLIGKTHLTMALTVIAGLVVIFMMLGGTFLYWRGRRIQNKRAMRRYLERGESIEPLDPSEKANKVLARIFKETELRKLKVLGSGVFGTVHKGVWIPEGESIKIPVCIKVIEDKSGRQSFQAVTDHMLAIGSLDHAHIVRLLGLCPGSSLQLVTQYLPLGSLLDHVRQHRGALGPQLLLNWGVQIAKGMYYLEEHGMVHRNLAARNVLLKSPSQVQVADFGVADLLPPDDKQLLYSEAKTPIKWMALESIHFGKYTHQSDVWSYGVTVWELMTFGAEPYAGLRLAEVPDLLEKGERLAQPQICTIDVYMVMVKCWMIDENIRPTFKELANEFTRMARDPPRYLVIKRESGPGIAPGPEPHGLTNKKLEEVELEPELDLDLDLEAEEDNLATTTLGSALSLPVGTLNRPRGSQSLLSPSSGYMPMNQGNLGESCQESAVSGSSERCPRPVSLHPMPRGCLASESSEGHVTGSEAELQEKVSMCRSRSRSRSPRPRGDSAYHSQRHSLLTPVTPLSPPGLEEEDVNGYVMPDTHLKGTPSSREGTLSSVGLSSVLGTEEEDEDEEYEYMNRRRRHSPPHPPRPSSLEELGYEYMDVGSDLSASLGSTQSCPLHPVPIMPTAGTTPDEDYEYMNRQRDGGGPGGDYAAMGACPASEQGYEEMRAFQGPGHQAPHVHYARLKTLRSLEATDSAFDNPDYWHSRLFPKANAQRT
UniProt O75460: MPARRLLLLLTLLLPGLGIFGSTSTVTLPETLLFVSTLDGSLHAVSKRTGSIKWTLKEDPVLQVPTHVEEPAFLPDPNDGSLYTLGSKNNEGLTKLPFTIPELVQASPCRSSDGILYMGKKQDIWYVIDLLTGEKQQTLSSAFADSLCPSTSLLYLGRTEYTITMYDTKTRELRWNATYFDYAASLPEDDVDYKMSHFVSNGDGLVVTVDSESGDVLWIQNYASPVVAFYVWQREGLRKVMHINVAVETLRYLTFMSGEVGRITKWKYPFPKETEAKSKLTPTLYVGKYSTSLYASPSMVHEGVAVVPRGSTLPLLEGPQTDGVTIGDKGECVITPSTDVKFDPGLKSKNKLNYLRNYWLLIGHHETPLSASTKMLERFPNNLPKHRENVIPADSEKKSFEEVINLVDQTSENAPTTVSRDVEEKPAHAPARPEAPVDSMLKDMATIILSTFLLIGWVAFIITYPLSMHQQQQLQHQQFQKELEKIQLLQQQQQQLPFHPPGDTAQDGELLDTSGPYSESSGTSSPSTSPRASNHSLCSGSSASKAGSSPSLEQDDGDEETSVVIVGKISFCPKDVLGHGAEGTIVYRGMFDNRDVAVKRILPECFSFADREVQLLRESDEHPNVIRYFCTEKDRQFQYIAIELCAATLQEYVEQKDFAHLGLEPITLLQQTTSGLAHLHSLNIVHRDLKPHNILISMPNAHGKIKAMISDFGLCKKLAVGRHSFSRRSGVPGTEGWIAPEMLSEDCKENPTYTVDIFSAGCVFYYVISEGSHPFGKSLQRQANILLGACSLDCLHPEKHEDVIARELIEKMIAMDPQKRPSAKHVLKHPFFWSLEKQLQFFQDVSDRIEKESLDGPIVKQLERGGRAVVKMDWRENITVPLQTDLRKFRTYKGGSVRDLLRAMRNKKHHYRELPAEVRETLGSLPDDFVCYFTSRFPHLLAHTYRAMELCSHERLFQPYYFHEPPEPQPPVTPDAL
UniProt P11362, whole entry, looked up: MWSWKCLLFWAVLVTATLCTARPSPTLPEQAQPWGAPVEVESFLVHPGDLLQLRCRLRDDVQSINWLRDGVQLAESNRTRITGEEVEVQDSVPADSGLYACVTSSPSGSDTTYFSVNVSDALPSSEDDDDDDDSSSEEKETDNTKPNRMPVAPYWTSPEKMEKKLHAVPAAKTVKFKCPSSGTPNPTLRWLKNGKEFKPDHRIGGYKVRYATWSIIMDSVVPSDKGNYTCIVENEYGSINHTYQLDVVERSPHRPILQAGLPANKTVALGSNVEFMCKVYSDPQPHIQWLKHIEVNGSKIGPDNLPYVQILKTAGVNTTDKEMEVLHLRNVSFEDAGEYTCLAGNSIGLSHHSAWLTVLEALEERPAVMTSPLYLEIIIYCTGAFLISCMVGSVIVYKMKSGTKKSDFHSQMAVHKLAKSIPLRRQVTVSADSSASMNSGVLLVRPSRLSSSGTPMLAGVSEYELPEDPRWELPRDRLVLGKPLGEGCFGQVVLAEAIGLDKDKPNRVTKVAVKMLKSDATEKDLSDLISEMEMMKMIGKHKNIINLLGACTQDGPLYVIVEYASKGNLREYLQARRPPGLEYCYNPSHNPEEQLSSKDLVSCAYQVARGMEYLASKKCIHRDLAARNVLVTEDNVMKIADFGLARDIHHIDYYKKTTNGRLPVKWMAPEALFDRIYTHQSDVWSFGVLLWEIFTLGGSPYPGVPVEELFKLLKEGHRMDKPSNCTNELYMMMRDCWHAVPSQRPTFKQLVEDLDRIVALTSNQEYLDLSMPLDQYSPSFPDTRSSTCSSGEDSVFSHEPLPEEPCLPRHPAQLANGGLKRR
UniProt P36888, whole entry: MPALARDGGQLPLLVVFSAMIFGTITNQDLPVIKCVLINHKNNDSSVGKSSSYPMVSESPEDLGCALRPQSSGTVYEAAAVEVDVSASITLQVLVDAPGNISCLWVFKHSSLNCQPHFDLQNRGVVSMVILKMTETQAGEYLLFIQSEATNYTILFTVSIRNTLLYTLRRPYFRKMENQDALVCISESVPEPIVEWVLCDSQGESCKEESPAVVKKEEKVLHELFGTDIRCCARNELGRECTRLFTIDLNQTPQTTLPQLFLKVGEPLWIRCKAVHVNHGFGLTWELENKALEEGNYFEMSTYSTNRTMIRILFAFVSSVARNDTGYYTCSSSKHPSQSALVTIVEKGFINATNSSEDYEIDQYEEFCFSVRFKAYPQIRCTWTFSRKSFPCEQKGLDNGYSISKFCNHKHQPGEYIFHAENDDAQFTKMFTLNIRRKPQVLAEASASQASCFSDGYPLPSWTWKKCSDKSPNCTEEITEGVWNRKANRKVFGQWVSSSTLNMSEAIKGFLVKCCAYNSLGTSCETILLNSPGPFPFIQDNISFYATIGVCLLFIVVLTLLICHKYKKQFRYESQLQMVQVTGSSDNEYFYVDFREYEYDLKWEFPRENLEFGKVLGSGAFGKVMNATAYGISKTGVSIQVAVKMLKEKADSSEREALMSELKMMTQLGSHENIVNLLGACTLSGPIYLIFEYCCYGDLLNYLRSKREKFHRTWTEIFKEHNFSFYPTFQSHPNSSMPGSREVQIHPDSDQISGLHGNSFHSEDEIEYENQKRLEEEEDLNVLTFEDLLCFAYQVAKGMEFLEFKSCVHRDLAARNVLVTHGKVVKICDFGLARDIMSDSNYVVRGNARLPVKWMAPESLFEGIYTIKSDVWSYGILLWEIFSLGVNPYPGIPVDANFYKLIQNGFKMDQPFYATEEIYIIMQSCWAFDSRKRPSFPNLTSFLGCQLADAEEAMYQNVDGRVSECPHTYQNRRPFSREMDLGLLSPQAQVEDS
UniProt P06241, whole entry, looked up: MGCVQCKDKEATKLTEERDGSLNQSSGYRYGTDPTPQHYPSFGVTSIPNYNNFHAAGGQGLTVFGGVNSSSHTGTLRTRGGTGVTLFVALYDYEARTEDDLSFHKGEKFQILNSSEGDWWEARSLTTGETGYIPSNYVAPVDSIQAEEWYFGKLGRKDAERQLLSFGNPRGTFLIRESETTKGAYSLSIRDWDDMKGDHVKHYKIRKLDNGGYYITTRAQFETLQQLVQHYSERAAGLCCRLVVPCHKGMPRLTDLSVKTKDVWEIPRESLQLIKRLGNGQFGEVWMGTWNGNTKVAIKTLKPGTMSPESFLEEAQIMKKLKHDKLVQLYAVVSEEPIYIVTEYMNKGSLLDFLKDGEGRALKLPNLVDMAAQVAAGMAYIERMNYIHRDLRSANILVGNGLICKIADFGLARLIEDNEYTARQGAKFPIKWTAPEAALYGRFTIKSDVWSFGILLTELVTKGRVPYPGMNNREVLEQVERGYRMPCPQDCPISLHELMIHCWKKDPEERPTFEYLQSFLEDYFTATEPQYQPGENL
UniProt P49840: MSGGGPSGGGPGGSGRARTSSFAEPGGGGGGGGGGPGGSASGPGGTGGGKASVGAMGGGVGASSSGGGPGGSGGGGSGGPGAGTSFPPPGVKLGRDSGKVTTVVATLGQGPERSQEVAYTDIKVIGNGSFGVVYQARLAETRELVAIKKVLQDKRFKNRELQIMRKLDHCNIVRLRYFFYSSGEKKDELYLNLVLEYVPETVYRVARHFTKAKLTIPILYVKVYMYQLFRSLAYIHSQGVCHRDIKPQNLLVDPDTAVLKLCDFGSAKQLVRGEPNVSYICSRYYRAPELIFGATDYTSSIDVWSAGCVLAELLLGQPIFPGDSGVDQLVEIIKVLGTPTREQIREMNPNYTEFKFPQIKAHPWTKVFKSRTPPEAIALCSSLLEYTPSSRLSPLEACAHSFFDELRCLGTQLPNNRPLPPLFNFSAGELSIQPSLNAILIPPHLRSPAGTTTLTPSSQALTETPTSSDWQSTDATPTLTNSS
UniProt P14616: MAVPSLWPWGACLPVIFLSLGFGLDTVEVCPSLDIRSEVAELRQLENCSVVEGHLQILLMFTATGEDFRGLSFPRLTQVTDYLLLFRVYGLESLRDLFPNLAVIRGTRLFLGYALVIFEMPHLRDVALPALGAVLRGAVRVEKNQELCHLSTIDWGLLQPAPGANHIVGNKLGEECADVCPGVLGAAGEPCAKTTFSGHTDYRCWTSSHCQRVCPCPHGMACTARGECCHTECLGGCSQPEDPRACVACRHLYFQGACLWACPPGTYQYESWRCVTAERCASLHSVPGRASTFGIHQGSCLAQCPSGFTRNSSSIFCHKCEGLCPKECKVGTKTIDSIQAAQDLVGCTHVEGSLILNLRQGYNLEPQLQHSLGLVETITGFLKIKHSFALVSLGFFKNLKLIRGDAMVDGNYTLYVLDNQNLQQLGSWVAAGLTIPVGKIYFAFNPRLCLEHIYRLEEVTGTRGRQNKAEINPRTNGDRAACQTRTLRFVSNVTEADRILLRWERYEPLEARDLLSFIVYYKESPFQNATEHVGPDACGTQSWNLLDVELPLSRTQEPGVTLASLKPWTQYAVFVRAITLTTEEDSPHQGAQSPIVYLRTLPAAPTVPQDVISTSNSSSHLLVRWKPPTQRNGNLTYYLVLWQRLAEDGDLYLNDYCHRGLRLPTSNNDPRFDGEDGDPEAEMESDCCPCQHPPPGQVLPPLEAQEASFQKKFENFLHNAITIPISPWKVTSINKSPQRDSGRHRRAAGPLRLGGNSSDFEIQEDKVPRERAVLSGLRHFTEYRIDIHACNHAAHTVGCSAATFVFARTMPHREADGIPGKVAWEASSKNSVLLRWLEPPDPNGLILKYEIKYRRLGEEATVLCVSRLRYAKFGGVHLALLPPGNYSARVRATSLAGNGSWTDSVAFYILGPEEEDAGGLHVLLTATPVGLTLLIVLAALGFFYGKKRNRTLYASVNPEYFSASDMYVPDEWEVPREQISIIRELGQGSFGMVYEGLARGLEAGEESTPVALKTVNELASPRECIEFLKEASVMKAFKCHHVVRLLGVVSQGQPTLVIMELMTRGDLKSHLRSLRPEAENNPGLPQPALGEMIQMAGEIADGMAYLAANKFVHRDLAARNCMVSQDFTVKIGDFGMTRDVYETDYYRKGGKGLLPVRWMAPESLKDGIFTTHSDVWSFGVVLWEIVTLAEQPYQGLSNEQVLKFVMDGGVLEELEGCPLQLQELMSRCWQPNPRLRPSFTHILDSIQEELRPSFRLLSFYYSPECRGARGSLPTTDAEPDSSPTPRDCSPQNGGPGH

What was measured:
Experiment in all cases: kinase-Nluc reporter destabilization hit call (1 = scored as downregulated) (binary); higher = compound decreases kinase abundance
Conditions in all cases: K562; 2-18 h
EGFR = EGFR (UniProt P00533)
EGFR_G719S = EGFR_G719S (UniProt P00533)
EGFR_G719S_T790M = EGFR_G719S_T790M (UniProt P00533)
EGFR_L718V = EGFR_L718V (UniProt P00533)
EGFR_L858R = EGFR_L858R (UniProt P00533)
EGFR_L861Q = EGFR_L861Q (UniProt P00533)
EGFR_T790M = EGFR_T790M (UniProt P00533)
EPHA2 = EPHA2 (UniProt P29317)
ERBB3 = ERBB3 (UniProt P21860)
[1] = target: ERBB4_R711C (clone: ERBB4_mut) (UniProt Q15303)
ERN1 = ERN1 (UniProt O75460)
FGFR1 = FGFR1 (UniProt P11362)
FGFR2 = FGFR2 (UniProt P21802)
FGFR3 = FGFR3 (UniProt P22607)
FGR = FGR (UniProt P09769)
FLT3 = FLT3 (UniProt P36888)
FYN = FYN (UniProt P06241)
GSK3A = GSK3A (UniProt P49840)
HER2 = HER2 (UniProt P04626)
INSRR = INSRR (UniProt P14616)

SMILES | kinase-Nluc reporter destabilization hit call (EGFR) | kinase-Nluc reporter destabilization hit call (EGFR_G719S) | kinase-Nluc reporter destabilization hit call (EGFR_G719S_T790M) | kinase-Nluc reporter destabilization hit call (EGFR_L718V) | kinase-Nluc reporter destabilization hit call (EGFR_L858R) | kinase-Nluc reporter destabilization hit call (EGFR_L861Q) | kinase-Nluc reporter destabilization hit call (EGFR_T790M) | kinase-Nluc reporter destabilization hit call (EPHA2) | kinase-Nluc reporter destabilization hit call (ERBB3) | kinase-Nluc reporter destabilization hit call [1] | kinase-Nluc reporter destabilization hit call (ERN1) | kinase-Nluc reporter destabilization hit call (FGFR1) | kinase-Nluc reporter destabilization hit call (FGFR2) | kinase-Nluc reporter destabilization hit call (FGFR3) | kinase-Nluc reporter destabilization hit call (FGR) | kinase-Nluc reporter destabilization hit call (FLT3) | kinase-Nluc reporter destabilization hit call (FYN) | kinase-Nluc reporter destabilization hit call (GSK3A) | kinase-Nluc reporter destabilization hit call (HER2) | kinase-Nluc reporter destabilization hit call (INSRR)
Cc1ccc(Nc2cc(-c3cccc(N4C(=O)c5ccccc5C4=O)c3)ncn2)cc1NS(C)(=O)=O (10 µM) | inactive: 0 | inactive: 0 | inactive: 0 | inactive: 0 | inactive: 0 | inactive: 0 | inactive: 0 | inactive: 0 | inactive: 0 | inactive: 0 | inactive: 0 | inactive: 0 | inactive: 0 | inactive: 0 | inactive: 0 | inactive: 0 | inactive: 0 | inactive: 0 | inactive: 0 | inactive: 0
CC[C@@]1(c2ccccc2)C2=C(CC(C)(C)CC2=O)Nc2[nH]ncc21 (10 µM) | inactive: 0 | inactive: 0 | inactive: 0 | inactive: 0 | inactive: 0 | inactive: 0 | inactive: 0 | inactive: 0 | inactive: 0 | inactive: 0 | inactive: 0 | inactive: 0 | inactive: 0 | inactive: 0 | inactive: 0 | inactive: 0 | inactive: 0 | inactive: 0 | inactive: 0 | inactive: 0
Cn1c(=O)c(F)c(Nc2ccc(I)cc2F)c2c(=O)n(C[C@@H](O)CO)cnc21 (10 µM) | inactive: 0 | inactive: 0 | inactive: 0 | inactive: 0 | inactive: 0 | inactive: 0 | inactive: 0 | inactive: 0 | inactive: 0 | inactive: 0 | inactive: 0 | inactive: 0 | inactive: 0 | inactive: 0 | inactive: 0 | active: 1 | inactive: 0 | inactive: 0 | inactive: 0 | inactive: 0
Cn1cc(-c2ccc(CNc3cc(-c4cnc5cc(OCCCN6CCCC6)ccn45)ncn3)cc2)cn1 (10 µM) | inactive: 0 | inactive: 0 | inactive: 0 | inactive: 0 | inactive: 0 | inactive: 0 | inactive: 0 | inactive: 0 | inactive: 0 | inactive: 0 | inactive: 0 | inactive: 0 | inactive: 0 | inactive: 0 | inactive: 0 | inactive: 0 | inactive: 0 | inactive: 0 | inactive: 0 | inactive: 0
C#CCN(C)C(=O)CCNc1nc(N2CCN(C(=O)C=C)CC2)c2cc(Cl)c(-c3c(O)cccc3F)c(F)c2n1 [ARS-1323-alkyne] (2.5 µM) | inactive: 0 | inactive: 0 | inactive: 0 | inactive: 0 | inactive: 0 | inactive: 0 | inactive: 0 | inactive: 0 | inactive: 0 | inactive: 0 | inactive: 0 | inactive: 0 | inactive: 0 | inactive: 0 | inactive: 0 | inactive: 0 | inactive: 0 | inactive: 0 | inactive: 0 | inactive: 0
O=C(O)c1cc(O)ccc1O [2,5-Dihydroxybenzoic acid] (10 µM) | inactive: 0 | inactive: 0 | inactive: 0 | inactive: 0 | inactive: 0 | inactive: 0 | inactive: 0 | inactive: 0 | inactive: 0 | inactive: 0 | inactive: 0 | inactive: 0 | inactive: 0 | inactive: 0 | inactive: 0 | inactive: 0 | inactive: 0 | inactive: 0 | inactive: 0 | inactive: 0
COc1ncc(-c2nc(N3CCOCC3)nc3c(CN4CCC(C(C)(C)O)CC4)cc(F)cc23)cc1NS(C)(=O)=O [Linperlisib] (10 µM) | inactive: 0 | inactive: 0 | inactive: 0 | inactive: 0 | inactive: 0 | inactive: 0 | inactive: 0 | inactive: 0 | inactive: 0 | inactive: 0 | inactive: 0 | inactive: 0 | inactive: 0 | inactive: 0 | inactive: 0 | inactive: 0 | inactive: 0 | inactive: 0 | inactive: 0 | inactive: 0
C=CC(=O)Nc1cc2c(Nc3ccc(OCc4ccccn4)c(Cl)c3)ncnc2cc1OCCN1CCOCC1 (10 µM) | inactive: 0 | inactive: 0 | inactive: 0 | inactive: 0 | inactive: 0 | inactive: 0 | inactive: 0 | inactive: 0 | inactive: 0 | inactive: 0 | inactive: 0 | inactive: 0 | inactive: 0 | inactive: 0 | inactive: 0 | inactive: 0 | inactive: 0 | inactive: 0 | active: 1 | inactive: 0
CC(C)NC(=O)N1CC[C@H](NC2=Nc3cc(F)ccc3N(CC(F)F)c3ccc(Cl)cc32)C1 (10 µM) | inactive: 0 | inactive: 0 | inactive: 0 | inactive: 0 | inactive: 0 | inactive: 0 | inactive: 0 | inactive: 0 | inactive: 0 | inactive: 0 | inactive: 0 | inactive: 0 | inactive: 0 | inactive: 0 | inactive: 0 | inactive: 0 | inactive: 0 | inactive: 0 | inactive: 0 | inactive: 0
CC(=O)c1c(C)c2cnc(Nc3ccc(N4CCN(CCCCNC(=O)COc5cccc6c5C(=O)N(C5CCC(=O)NC5=O)C6=O)CC4)cn3)nc2n(C2CCCC2)c1=O (stereo not given) (10 µM) | inactive: 0 | inactive: 0 | inactive: 0 | inactive: 0 | inactive: 0 | inactive: 0 | inactive: 0 | inactive: 0 | inactive: 0 | inactive: 0 | inactive: 0 | inactive: 0 | inactive: 0 | inactive: 0 | inactive: 0 | inactive: 0 | inactive: 0 | inactive: 0 | inactive: 0 | inactive: 0
COc1ccc2c(c1O)OC(C)(C)c1c-2ccc2c1C(=O)N(c1ccc(C(=O)c3ccccc3)cc1)C2=O [Ampkinone] (10 µM) | inactive: 0 | inactive: 0 | inactive: 0 | inactive: 0 | inactive: 0 | inactive: 0 | inactive: 0 | inactive: 0 | inactive: 0 | inactive: 0 | inactive: 0 | inactive: 0 | inactive: 0 | inactive: 0 | inactive: 0 | inactive: 0 | inactive: 0 | inactive: 0 | inactive: 0 | inactive: 0
CC(C)c1cnc(-c2cc(Cl)ccc2F)cc1Nc1ccncc1C(=O)NC(CO)CO (2.5 µM) | inactive: 0 | inactive: 0 | inactive: 0 | inactive: 0 | inactive: 0 | inactive: 0 | inactive: 0 | inactive: 0 | inactive: 0 | inactive: 0 | inactive: 0 | inactive: 0 | inactive: 0 | inactive: 0 | inactive: 0 | inactive: 0 | inactive: 0 | inactive: 0 | inactive: 0 | inactive: 0
C[C@@]1(O)CCC[C@H]1n1c(=O)c(C(F)F)cc2cnc(NC3CCN(S(C)(=O)=O)CC3)nc21 (2.5 µM) | inactive: 0 | inactive: 0 | inactive: 0 | inactive: 0 | inactive: 0 | inactive: 0 | inactive: 0 | inactive: 0 | inactive: 0 | inactive: 0 | inactive: 0 | inactive: 0 | inactive: 0 | inactive: 0 | inactive: 0 | inactive: 0 | inactive: 0 | inactive: 0 | inactive: 0 | inactive: 0
C=CC(=O)Nc1cccc(C)c1Nc1ncc2cc(-c3c(Cl)c(OC)cc(OC)c3Cl)ccc2n1 (2.5 µM) | inactive: 0 | inactive: 0 | inactive: 0 | inactive: 0 | inactive: 0 | inactive: 0 | inactive: 0 | inactive: 0 | inactive: 0 | inactive: 0 | inactive: 0 | inactive: 0 | inactive: 0 | inactive: 0 | inactive: 0 | inactive: 0 | inactive: 0 | inactive: 0 | inactive: 0 | inactive: 0
Cc1cc(O)c(C(C)C)cc1N=O [Poloxime] (10 µM) | inactive: 0 | inactive: 0 | inactive: 0 | inactive: 0 | inactive: 0 | inactive: 0 | inactive: 0 | inactive: 0 | inactive: 0 | inactive: 0 | inactive: 0 | inactive: 0 | inactive: 0 | inactive: 0 | inactive: 0 | inactive: 0 | inactive: 0 | inactive: 0 | inactive: 0 | inactive: 0
CCN(CC)S(=O)(=O)c1ccc(OC)c(N2CCN(C(=O)c3ccc(F)cc3C(F)(F)F)CC2)c1 (10 µM) | inactive: 0 | inactive: 0 | inactive: 0 | inactive: 0 | inactive: 0 | inactive: 0 | inactive: 0 | inactive: 0 | inactive: 0 | inactive: 0 | inactive: 0 | inactive: 0 | inactive: 0 | inactive: 0 | inactive: 0 | inactive: 0 | inactive: 0 | inactive: 0 | inactive: 0 | inactive: 0
NCc1ccc(Nc2ncc(F)c(Nc3ccccc3)n2)cc1 (10 µM) | inactive: 0 | inactive: 0 | inactive: 0 | inactive: 0 | inactive: 0 | inactive: 0 | inactive: 0 | inactive: 0 | inactive: 0 | inactive: 0 | inactive: 0 | inactive: 0 | inactive: 0 | inactive: 0 | inactive: 0 | inactive: 0 | inactive: 0 | inactive: 0 | inactive: 0 | inactive: 0
O=C(Nc1ccc2[nH]nc(-c3ccncc3)c2c1)[C@@H]1CCN(CC(=O)N2CCN(c3ccc(-c4ncccn4)cc3)CC2)C1 (2.5 µM) | inactive: 0 | inactive: 0 | inactive: 0 | inactive: 0 | inactive: 0 | inactive: 0 | inactive: 0 | inactive: 0 | inactive: 0 | inactive: 0 | inactive: 0 | inactive: 0 | inactive: 0 | inactive: 0 | inactive: 0 | inactive: 0 | inactive: 0 | inactive: 0 | inactive: 0 | inactive: 0

2 of the compounds above, with tabs.
SMILES	kinase-Nluc reporter destabilization hit call (EGFR)	kinase-Nluc reporter destabilization hit call (EGFR_G719S)	kinase-Nluc reporter destabilization hit call (EGFR_G719S_T790M)	kinase-Nluc reporter destabilization hit call (EGFR_L718V)	kinase-Nluc reporter destabilization hit call (EGFR_L858R)	kinase-Nluc reporter destabilization hit call (EGFR_L861Q)	kinase-Nluc reporter destabilization hit call (EGFR_T790M)	kinase-Nluc reporter destabilization hit call (EPHA2)	kinase-Nluc reporter destabilization hit call (ERBB3)	kinase-Nluc reporter destabilization hit call [1]	kinase-Nluc reporter destabilization hit call (ERN1)	kinase-Nluc reporter destabilization hit call (FGFR1)	kinase-Nluc reporter destabilization hit call (FGFR2)	kinase-Nluc reporter destabilization hit call (FGFR3)	kinase-Nluc reporter destabilization hit call (FGR)	kinase-Nluc reporter destabilization hit call (FLT3)	kinase-Nluc reporter destabilization hit call (FYN)	kinase-Nluc reporter destabilization hit call (GSK3A)	kinase-Nluc reporter destabilization hit call (HER2)	kinase-Nluc reporter destabilization hit call (INSRR)
Cc1ccc(Nc2cc(-c3cccc(N4C(=O)c5ccccc5C4=O)c3)ncn2)cc1NS(C)(=O)=O (10 µM)	inactive: 0	inactive: 0	inactive: 0	inactive: 0	inactive: 0	inactive: 0	inactive: 0	inactive: 0	inactive: 0	inactive: 0	inactive: 0	inactive: 0	inactive: 0	inactive: 0	inactive: 0	inactive: 0	inactive: 0	inactive: 0	inactive: 0	inactive: 0
Cn1cc(-c2ccc(CNc3cc(-c4cnc5cc(OCCCN6CCCC6)ccn45)ncn3)cc2)cn1 (10 µM)	inactive: 0	inactive: 0	inactive: 0	inactive: 0	inactive: 0	inactive: 0	inactive: 0	inactive: 0	inactive: 0	inactive: 0	inactive: 0	inactive: 0	inactive: 0	inactive: 0	inactive: 0	inactive: 0	inactive: 0	inactive: 0	inactive: 0	inactive: 0
